{"source": "PubChem BioAssay AID540276", "about": "(National Center for Advancing Translational Sciences (NCATS), 2011)", "note": "Where “and” joins values, the source holds several entries; their conditions need not be identical. Equal entries are not always repeated. Out of some 300,000 compounds screened, about 5,400 (1.8%) were called active. The shares of active, inactive and inconclusive entries below differ from those in the screen. Calls follow the shape of the full dose curve; tested in HEK293 cells. A potency beside an inconclusive call is a rough fit, not a confirmed value. Potency is read from the fitted curve at half-maximal effect."}
{"test": "qHTS for inhibitors of binding or entry into cells for Marburg Virus", "conditions": "Marburg virus pseudotyped entry inhibition, cell reporter; series mostly up to 37.8 µM"}
{"smiles": "O=[N+]([O-])c1cccc(C2=NCCC(c3ccccc3)O2)c1", "note": "(configuration not stated)", "Potency": "inactive"}
{"smiles": "CC(C)c1ccc(CNc2n[nH]c(-c3ccco3)n2)cc1", "Potency": "inactive"}
{"smiles": "COCCNC(=O)C1=CC(c2ccc3c(c2)OCO3)=NS(=O)(=O)N1C", "Potency": "inconclusive: 5.62 µM [activator, single point]"}
{"smiles": "Cc1cc2nc(CCN(C(=S)NCC(C)C)C3CCCC3)[nH]c2cc1C", "Potency": "inconclusive: 16.4 µM [inhibitor, partial curve, poor fit]"}
{"smiles": "CN(C)S(=O)(=O)c1ccc(C(=O)OCc2ccc(C#N)cc2)cc1", "Potency": "inactive"}
{"smiles": "CC1CCCCC1NC(=O)CCCc1nc2ccccc2c(=O)[nH]1", "note": "(configuration not stated)", "Potency": "inconclusive: 14.6 µM [activator, single point]"}
{"smiles": "CCn1c2ccccc2c2cc(NC(=O)c3cccc(OC)c3)ccc21", "Potency": "inconclusive: 32.6 µM [inhibitor, single point]"}
{"smiles": "O=C(NCCc1ccccc1)C(=Cc1ccc(C(=O)O)cc1)C(=O)NCCc1ccccc1", "Potency": "inconclusive: 35.5 µM [inhibitor, single point]"}
{"smiles": "C=C(C)[C@@H]1CC=C(CN2CCC(CCOC)(C(=O)OCC)CC2)CC1", "Potency": "inconclusive: 10 µM [inhibitor, partial curve, poor fit]"}
{"smiles": "OCCn1cnc2c(SCc3ccccc3)ncnc21", "Potency": "inconclusive: 2.82 µM [inhibitor, full curve, poor fit]"}
{"smiles": "Cc1ccc(-c2nnn(CC(=O)N(CC(=O)NCc3ccccc3)c3cccc(C)c3C)n2)o1", "Potency": "inconclusive: 23.1 µM [inhibitor, single point]"}
{"smiles": "COc1ccc(C(=O)N(Cc2cc(OC)c(OC)c(OC)c2)C2CCS(=O)(=O)C2)cc1Cl", "note": "(configuration not stated)", "Potency": "inactive"}
{"smiles": "COC1=C[C@H](C(=O)NC2CCN(Cc3ccccc3)CC2)C(C)C(c2ccccc2)CC1=O", "note": "(some centres not stated)", "Potency": "inactive"}
{"smiles": "Cc1ccc(-c2cc(C(F)F)nc(NCc3cccnc3)n2)cc1", "Potency": "inconclusive: 25.9 µM [inhibitor, partial curve, poor fit]"}
{"smiles": "CN(C)C(CNC(=S)Nc1ccc(Cl)cc1)c1cccnc1", "note": "(configuration not stated)", "Potency": "inactive"}
{"smiles": "CC(=O)Nc1ccc(C)c(NS(=O)(=O)c2cccc(C(F)(F)F)c2)c1", "Potency": "inconclusive: 35.5 µM [inhibitor, single point]"}
{"smiles": "Cc1cc(OC(=O)C(c2ccccc2)c2ccccc2)c([N+](=O)[O-])c(=O)[nH]1", "Potency": "inconclusive: 8.91 µM [activator, partial curve, poor fit]"}
{"smiles": "CCOC(=O)c1c(NC(=O)COc2ccc3ccc(=O)oc3c2)sc(C(=O)N(C)C)c1C", "Potency": "inconclusive: 4.47 µM [activator, full curve, poor fit]"}
{"smiles": "COc1cccc(NC(=O)Cn2c(=O)n(CCc3ccc(OC)c(OC)c3)c(=O)c3ccccc32)c1", "Potency": "inconclusive: 12.6 µM [activator, partial curve, poor fit]"}
{"smiles": "C=CC[C@@H]1C=C[C@H](ON=C(C)CCN2CCc3nc(CC)c(CC)cc3C2)[C@H](CO)O1", "Potency": "inconclusive: 0.211 µM [inhibitor, full curve, poor fit]"}
{"smiles": "Cc1ccc(C(=O)NCc2ccco2)cc1Br", "Potency": "inactive"}
{"smiles": "COc1ccccc1N(CC(O)CN1CCCCC1)S(=O)(=O)c1ccc(C)cc1", "note": "(configuration not stated)", "Potency": "inconclusive: 12.6 µM [inhibitor, single point]"}
{"smiles": "Cn1c(N)c(-c2ccccc2)c2ccc([N+](=O)[O-])cc2c1=O", "Potency": "inactive"}
{"smiles": "COc1cc(OC)c(OC)cc1CNCCCSc1nnnn1C", "Potency": "inactive"}
{"smiles": "Cc1[nH]c2c(Cl)cccc2c1CCN", "Potency": "inconclusive: 7.08 µM [inhibitor, partial curve, poor fit]"}
{"smiles": "CCc1ccc(OCc2cc(=O)n3cc(C)sc3n2)cc1", "Potency": "inactive"}
{"smiles": "COc1ccccc1NC(=S)N/N=C/c1ccc(O)cc1", "Potency": "inactive"}
{"smiles": "N=c1c(C(=O)NC2CCCCC2)cc2c(=O)n3ccccc3nc2n1CC1CCCO1", "note": "(configuration not stated)", "Potency": "inconclusive: 1 µM [inhibitor, full curve, poor fit]"}
{"smiles": "CCCc1cc(=O)[nH]c(SCC(=O)c2ccc3c(c2)OCCO3)n1", "Potency": "inactive"}
{"smiles": "N#Cc1c(NC(=S)NC(=O)C2CCCC2)sc2c1CCCCC2", "Potency": "inconclusive: 35.5 µM [inhibitor, single point]"}
{"smiles": "CCCCn1ccnc1C(=O)c1cc(S(=O)(=O)N2CCOCC2)ccc1C", "Potency": "inconclusive: 23.1 µM [inhibitor, partial curve, poor fit]"}
{"smiles": "Cc1ccc2c(c1)cc(CN(Cc1ccco1)C(=O)N1CCOCC1)c1nnnn12", "Potency": "inconclusive: 11.2 µM [inhibitor, partial curve, poor fit]"}
{"smiles": "COC(=O)c1sc(N(C)C)c(C#N)c1-c1ccccc1", "Potency": "inconclusive: 5.01 µM [activator, full curve, poor fit]"}
{"smiles": "CCc1nn(CC(=O)Nc2cc(C)ccc2C)c(=N)s1", "Potency": "inactive"}
{"smiles": "O=C1CC(c2ccccc2)NC(=O)N1", "note": "(configuration not stated)", "Potency": "inactive"}
{"smiles": "CCCCC(=O)Nc1ccc(NC(=O)CCCC)nc1", "Potency": "inactive"}
{"smiles": "O=C(CN1C(=O)COc2ccc(S(=O)(=O)N3CCOCC3)cc21)N1CCN(c2ccccc2F)CC1", "Potency": "inactive"}
{"smiles": "O=C(Nc1nnc(-c2ccccc2)o1)c1cccc(N2C(=O)CCC2=O)c1", "Potency": "inconclusive: 31.6 µM [activator, single point]"}
{"smiles": "O=C1C=C2C=C[C@H]3C[C@]2(O1)[C@@H]1CCCCN13", "Potency": "inconclusive: 20.6 µM [inhibitor, single point]"}
{"smiles": "Cc1ccccc1OCC(=O)Nc1ccc(C)c(S(=O)(=O)N2CCCCCC2)c1", "Potency": "inconclusive: 22.4 µM [inhibitor, single point]"}
{"smiles": "Cc1ccccc1NC(=O)c1cc2c(=O)n3cccc(C)c3nc2s1", "Potency": "inconclusive: 25.1 µM [inhibitor, single point]"}
{"smiles": "C=CCON/C(CCC)=C1\\C(=O)CC(C)(C)CC1=NC", "Potency": "inactive"}
{"smiles": "CN(CC(=O)Nc1cccc(S(=O)(=O)N2CCCC2)c1)CC(=O)Nc1ccc(F)c(F)c1F", "Potency": "inconclusive: 10 µM [inhibitor, single point]"}
{"smiles": "O=C(CNC(=O)c1ccccc1)OCc1ccc([N+](=O)[O-])cc1", "Potency": "inactive"}
{"smiles": "Cn1cnc([N+](=O)[O-])c1Sc1ncnc2nc[nH]c12", "Potency": "active: 7.08 µM and active: 18.3 µM"}
{"smiles": "O=C(O)Cc1csc(-c2ccccc2)n1", "Potency": "inactive"}
{"smiles": "CCN1CCN(c2nc3c(c(=O)n(C)c(=O)n3C)n2Cc2cccc3ccccc23)CC1", "Potency": "inactive and inconclusive: 4.11 µM [inhibitor, full curve, poor fit]"}
{"smiles": "CCOc1ccc(S(=O)(=O)NCCc2cn3ccccc3n2)cc1", "Potency": "inactive"}
{"smiles": "c1ccc(N2CCN(c3ncccn3)CC2)cc1", "Potency": "inactive"}
{"smiles": "Cc1cccc(CS(=O)(=O)Cc2ccc(C(=O)NCCCN3CCOCC3)o2)c1", "Potency": "inconclusive: 12.6 µM [activator, single point]"}
{"smiles": "Cc1cc2c(c(=O)n1Cc1ccc3c(c1)OCO3)C(c1cccnc1)C(C#N)=C(N)O2", "note": "(configuration not stated)", "Potency": "inactive"}
{"smiles": "C=CCn1c(COC)nnc1SCC(=O)c1ccc(F)cc1", "Potency": "inactive"}
{"smiles": "COc1cc(OC)cc(C(=O)N2CCC(n3c(C)nc4cc(F)ccc43)CC2)c1", "Potency": "inactive"}
{"smiles": "Cc1nnsc1S(=O)(=O)Cc1ccccc1C(F)(F)F", "Potency": "inactive"}
{"smiles": "CCCn1c(CN(C)Cc2ccccc2)nc2c1c(=O)n(C)c(=O)n2C", "Potency": "inconclusive: 0.0041 µM [inhibitor, full curve, poor fit]"}
{"smiles": "COc1cccc(S(=O)(=O)NCc2ccc3c(c2)OCO3)c1", "Potency": "inactive"}
{"smiles": "N#Cc1c(NC(=O)CSc2nc(-c3ccccc3)cc(C(F)(F)F)n2)sc2c1CCC2", "Potency": "inconclusive: 3.16 µM [inhibitor, full curve, poor fit]"}
{"smiles": "Cc1cc(C)nc(Sc2ncnc3c2oc2ccccc23)n1", "Potency": "inactive"}
{"smiles": "CCCCOCCCn1c(N)c(C(=O)OCCOC)c2nc3ccccc3nc21", "Potency": "inconclusive: 6.31 µM [inhibitor, single point]"}
{"smiles": "COc1ccc2c(=O)c(-c3ccccc3C)c(C)oc2c1", "Potency": "inconclusive: 0.282 µM [activator, full curve, poor fit]"}
{"smiles": "COC(=O)c1cc(NC(=O)c2ccco2)ccc1N1CCOCC1", "Potency": "inconclusive: 0.501 µM [activator, partial curve, poor fit]"}
{"smiles": "CCOc1ccc2c(c1)c(=O)c(S(=O)(=O)c1ccc(C)cc1)cn2Cc1ccccc1Cl", "Potency": "inconclusive: 7.08 µM [inhibitor, single point]"}
{"smiles": "O[C@]1(c2ccc(F)cc2)CCNC1", "Potency": "inactive"}
{"smiles": "Cc1cccc(Cl)c1NNC(=O)Nc1c([N+](=O)[O-])c(C)nn1C", "Potency": "inconclusive: 0.562 µM [inhibitor, full curve, poor fit]"}
{"smiles": "COC(=O)C[N+](C)(C)CC#Cc1ccccc1", "Potency": "inactive"}
{"smiles": "CCc1nnc(NC(=O)CN2CCC(O)(c3ccccc3OC)CC2)s1", "Potency": "inactive"}
{"smiles": "COc1cccc(C(=O)/C=C/Nc2ccc(S(=O)(=O)Nc3ccc(C(C)=O)cc3)cc2)c1", "Potency": "inconclusive: 35.5 µM [inhibitor, single point]"}
{"smiles": "CC1=C(C(=O)OCC2CCCO2)C(c2ccc(Cl)cc2)NC(=O)N1", "note": "(configuration not stated)", "Potency": "inconclusive: 12.6 µM [inhibitor, single point]"}
{"smiles": "COc1cc(/C=C/C(=O)c2ccc(C)cc2)ccc1OCC#N", "Potency": "inconclusive: 25.1 µM [inhibitor, partial curve, poor fit]"}
{"smiles": "CC1CC(C)CN(C(=O)CSc2nc3ccsc3c(=O)n2Cc2ccccn2)C1", "note": "(configuration not stated)", "Potency": "inconclusive: 8.2 µM [activator, partial curve, poor fit]"}
{"smiles": "Cc1cccc(C(=O)NNC(=O)c2ccc(S(=O)(=O)N3CCOCC3)cc2)c1", "Potency": "inconclusive: 2.82 µM [activator, full curve, poor fit]"}
{"smiles": "COc1cc2c(cc1OC)C(c1ccccc1)N(C(=O)c1cccc(S(C)(=O)=O)c1)CC2", "note": "(configuration not stated)", "Potency": "inactive"}
